Measurements reported in PMC9152703.
Results are given in words; binding and its absence hold for the method and conditions named. Binding seen in cells or lysates may run through a third protein.

Amino acid sequences for entries named in this document (tags omitted). A change or cut given only in a name is not applied to a line headed by its entry.
UniProt Q8TAB3: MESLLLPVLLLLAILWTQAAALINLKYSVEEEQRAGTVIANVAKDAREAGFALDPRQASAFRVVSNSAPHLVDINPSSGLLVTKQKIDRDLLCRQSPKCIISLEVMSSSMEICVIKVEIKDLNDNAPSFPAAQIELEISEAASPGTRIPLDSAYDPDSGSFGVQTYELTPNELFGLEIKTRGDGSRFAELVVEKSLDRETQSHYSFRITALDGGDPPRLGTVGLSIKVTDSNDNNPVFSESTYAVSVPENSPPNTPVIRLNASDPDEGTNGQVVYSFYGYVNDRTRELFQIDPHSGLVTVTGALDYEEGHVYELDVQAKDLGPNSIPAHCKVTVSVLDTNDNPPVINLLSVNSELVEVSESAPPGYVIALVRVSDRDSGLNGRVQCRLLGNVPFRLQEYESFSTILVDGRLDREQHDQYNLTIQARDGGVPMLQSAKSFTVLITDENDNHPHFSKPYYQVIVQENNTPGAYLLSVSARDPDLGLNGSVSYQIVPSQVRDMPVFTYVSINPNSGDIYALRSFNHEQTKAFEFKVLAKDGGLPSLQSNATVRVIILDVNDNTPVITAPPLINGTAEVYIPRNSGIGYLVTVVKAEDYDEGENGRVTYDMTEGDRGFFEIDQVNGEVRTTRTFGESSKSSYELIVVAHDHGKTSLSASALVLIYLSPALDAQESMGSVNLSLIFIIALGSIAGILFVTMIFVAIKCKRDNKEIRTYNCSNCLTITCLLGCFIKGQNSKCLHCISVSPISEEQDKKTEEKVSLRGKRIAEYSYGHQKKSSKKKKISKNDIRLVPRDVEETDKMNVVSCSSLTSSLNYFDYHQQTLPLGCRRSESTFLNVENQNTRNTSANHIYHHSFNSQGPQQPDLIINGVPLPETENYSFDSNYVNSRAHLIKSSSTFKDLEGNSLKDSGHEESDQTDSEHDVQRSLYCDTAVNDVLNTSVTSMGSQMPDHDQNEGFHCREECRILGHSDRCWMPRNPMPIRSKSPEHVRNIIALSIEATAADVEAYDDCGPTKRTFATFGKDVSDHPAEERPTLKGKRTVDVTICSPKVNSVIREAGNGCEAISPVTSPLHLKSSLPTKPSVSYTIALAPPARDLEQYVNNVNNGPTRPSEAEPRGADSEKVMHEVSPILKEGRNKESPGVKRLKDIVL

B1: PCDH9 (protocadherin-9) (protein, UniProt Q9HC56 24-1237)
chain: QELIYTIREELPENVPIGNIPKDLNISHINAATGTSASLVYRLVSKAGDAPLVKVSSSTGEIFTTSNRIDREKLCAGASYAEENECFFELEVVILPNDFFRLIKIKIIVKDTNDNAPMFPSPVINISIPENTLINSRFPIPSATDPDTGFNGVQHYELLNGQSVFGLDIVETPEGEKWPQLIVQQNLDREQKDTYVMKIKVEDGGTPQKSSTAILQVTVSDVNDNRPVFKEGQVEVHIPENAPVGTSVIQLHATDADIGSNAEIRYIFGAQVAPATKRLFALNNTTGLITVQRSLDREETAIHKVTVLASDGSSTPARATVTINVTDVNDNPPNIDLRYIISPINGTVYLSEKDPVNTKIALITVSDKDTDVNGKVICFIEREVPFHLKAVYDNQYLLETSSLLDYEGTKEFSFKIVASDSGKPSLNQTALVRVKLEDENDNPPIFNQPVIELSVSENNRRGLYLTTISATDEDSGKNADIVYQLGPNASFFDLDRKTGVLTASRVFDREEQERFIFTVTARDNGTPPLQSQAAVIVTVLDENDNSPKFTHNHFQFFVSENLPKYSTVGVITVTDADAGENKAVTLSILNDNDNFVLDPYSGVIKSNVSFDREQQSSYTFDVKATDGGQPPRSSTAKVTINVMDVNDNSPVVISPPSNTSFKLVPLSAIPGSVVAEVFAVDVDTGMNAELKYTIVSGNNKGLFRIDPVTGNITLEEKPAPTDVGLHRLVVNISDLGYPKSLHTLVLVFLYVNDTAGNASYIYDLIRRTMETPLDRNIGDSSQPYQNEDYLTIMIAIIAGAMVVIVVIFVTVLVRCRHASRFKAAQRSKQGAEWMSPNQENKQNKKKKRKKRKSPKSSLLNFVTIEESKPDDAVHEPINGTISLPAELEEQSIGRFDWGPAPPTTFKPNSPDLAKHYKSASPQPAFHLKPDTPVSVKKHHVIQELPLDNTFVGGCDTLSKRSSTSSDHFSASECSSQGGFKTKGPLHTRQCNSHSKSDNIPVTPQKCPSSTGFHIQENEESHYESQRRVTFHLPDGSQESCSDSGLGDHEPVGSGTLISHPLPLVQPQDEFYDQASPDKRTEADGNSDPNSDGPLGPRGLAEATEMCTQECLVLGHSDNCWMPPGLGPYQHPKSPLSTFAPQKEWVKKDKLVNGHTLTRAWKEDSNRNQFNDRKQYGSNEGHFNNGSHMTDIPLANLKSYKQAGGATESPKEHQL
B2: NOVA1, endogenous in rat brain (protein, UniProt Q80WA4 1-474)
chain: MAAAPIQQNGTHTGVPIDLDPPDSRKRPLEAPPEAGSTKRTNTGEDGQYFLKVLIPSYAAGSIIGKGGQTIVQLQKETGATIKLSKSKDFYPGTTERVCLIQGTIEALNAVHGFIAEKIREMPQNVAKTEPVSILQPQTTVNPDRIKQVKIIVPNSTAGLIIGKGGATVKAIMEQSGAWVQLSQKPDGINLQERVVTVSGEPEQNRKAVELIIQKIQEDPQSGSCLNISYANVTGPVANSNPTGFPYANTAEVLPTAAAAAGLLGHANLAGVAAFPAVLSGFTGNDLVAITSALNTLASYGYNLNTLGLGLSQAAATGALAAAAASANPAAAAANLLATYASEASASGSTAGGTAGTFALGSLAAATAATNGYFGAASPLAASAILGTEKSTDGSKDVVEIAVPENLVGAILGKGGKTLVEYQELTGARIQISKKGEFVPGTRNRKVTITGTPAATQAAQYLITQRITYEQGVR

Key:
[1] = molecular target: HA-nLSD1 (neuronal-specific isoform neuroLSD1); assay: co-IP; HEK cells, PCDH19-879Δ or PCDH9 with HA-LSD1 or HA-nLSD1, modified RIPA buffer (Figure S4E); which partner was precipitated is not given
[2] = molecular target: GST-CTF (GST-tagged PCDH19 C-terminal fragment) (UniProt Q8TAB3); assay: pull-down; GST-CTF or GST immobilized on beads, incubated overnight at 4°C with adult rat cortex and hippocampus homogenates in modified RIPA buffer; 5 washes; immunoblotting; only the target purified

Binder	binding [1]	binding [2]
B1	no binding	
B2		no binding
